Experimental data from article PMC11116412.
No constants are given. Whether binding was seen depends on the method and setting. Binding seen in cells or lysates may run through a third protein. Binding calls can cover weak binding; strength is not graded here.

Molecular target: Zonula occludens-1 (bovine (endogenous in BAECs))
Experiment: co-IP; endogenous proteins immunoprecipitated (1 µg antibody, 1 mg protein, overnight, protein A sepharose) from BAEC lysates, lysis buffer with 75 mM NaCl; immunoblot; non-immune IgG as control; cells treated or not with VEGF (40 ng/ml, 10 min), arsenite (500 µM, 30 min), MG132 or siZO-1

binding: binds
B1: junction plakoglobin (protein, UniProt Q8SPJ1 1-745)
chain: MEVMNLIEQPIKVTEWQQTYTYDSGIHSGANTCVPSLSSKGLIEEDEACGRQYTLKKTTTYTQSVPPGQGDLEYQMSTTARAKRVREAMCPGVTGEDSSLLLTTQVEGQTTNLQRLAEPSQLLKSAIVHLINYQDDAELATRALPELTKLLNDEDPVVVTKAAMIVNQLSKKEASRRALMGSPQLVAAVVRTMQNTSDLDTARCTTSILHNLSHHREGLLAIFKSGGIPALVRMLSSPVESVLFYAITTLHNLLLYQEGAKMAVRLADGLQKMVPLLNKNNPKFLAITTDCLQLLAYGNQESKLIILANGGPQALVQIMRNYSYEKLLWTTSRVLKVLSVCPSNKPAIVEAGGMQALGKHLTSNSPRLVQNCLWTLRNLSDVATKQEGLESVLKILVNQLSVDDVNVLTCATGTLSNLTCNNSKNKTLVTQNSGVEALIHAILRAGDKDDITEPAVCALRHLTSRHPEAEMAQNSVRLNYGIPAIVKLLNQPNQWPLVKATIGLIRNLALCPANHAPLQEAAVIPRLVQLLVKAHQDAQRHVAAGTQQPYTDGVRMEEIVEGCTGALHILARDPMNRMEIFRLNTIPLFVQLLYSSVENIQRVAAGVLCELAQDKEAADAIDAEGASAPLMELLHSRNEGTATYAAAVLFRISEDKNPDYRKRVSVELTNSLFKHDPAAWEAAQSMIPMNEPYADDMDATYRPMYSSDVPMDPLEMHMDMDGDYPIDTYSDGLRPPYATADHMLA
